Structures were worked out from names or drawings and are uncertain.
Columns and labels:
[1] = tested on: PKC; test: cell-free PKC binding assay, isoform not given; design: species or system human
[2] = tested on: PKCδ-GFP fusion protein; test: PKCδ-GFP translocation assay in living CHO-k1 cells (confocal microscopy); assay type: cell-based, Chinese hamster

## CCC/C=C/C=C/C(=O)O[C@H]1/C(=C/C(=O)OC)C[C@H]2C[C@H]([C@@H](C)O)OC(=O)C[C@H](O)C[C@@H]3C[C@H](OC(C)=O)C(C)(C)[C@](O)(C[C@@H]4C/C(=C/C(=O)OCc5ccccc5)C[C@H](/C=C/C(C)(C)[C@]1(O)O2)O4)O3
[1]; comparator not stated
  decrease in affinity (binds PKC): 2 fold
[1]; versus bryostatin 1 (C13 methyl-(Z)-enoate)
  decrease in affinity to PKC / potency: 30 fold
[2]
  concentration* (minimum effective concentration required to induce translocation of PKC-GFP to the membrane): 1000 nM
[2]; maximum translocation of PKCδ-GFP to the plasma membrane at the concentration printed in the same cell, SUW212: only brief translocation observed
  % Translocation: 60%

From US20220193029A1, “BRYOSTATIN COMPOUNDS FOR ENHANCEMENT OF IMMUNOTHERAPY” (priority 2019, published 2022)
